A short description of this experiment: qHTS Assay to Find Inhibitors of Chronic Active B-Cell Receptor Signaling. Particulars: ABC-DLBCL IkBa-CBG/CBR reporter, luminescence ratio (green luciferase fused to IkBa over red control in TMD8 lymphoma cells), 4 h. Put shortly: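 Compounds up to 46 uM were incubated four hours with TMD8 cells whose green CBG68 luciferase is fused to IkappaBalpha; red CBR luminescence normalised the signal, and concentration-effect curves were fitted to fusion, red and ratio data.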
For orientation: In qHTS, concentration-response curves come from the screen itself.

The mark [1] stands for this setting: measured here: CBR red luminescence, cell number.
The mark [2] stands for this setting: measured here: IkBa-CBG green luminescence.

Structures are written as SMILES. The list shows a part of the results. The main result of the screen is listed elsewhere. These columns were measured beside it and carry no call. The list favours compounds with an active or inconclusive main result. Words in brackets tell the shape of the fitted curve; partial curves, single points and poor fits give uncertain potencies.

As usually defined, the AC50 is the concentration at which the activity in the assay is half-maximal. For `C=C1CCC[C@]2(C)C[C@H]3OC(=O)C(CN4CCCCC4CO)[C@H]3CC12` (some centres not stated), the AC50 under setting [1] is 11.2 µM [falling, partial curve, poor fit].

For `Cc1ccc2[nH]c(=O)c(Cc3ccccc3)c(O)c2c1`, the AC50 under setting [1] was 0.224 µM [rising, full curve, poor fit]. As to `O=C1Nc2ccccc2Nc2ccccc21`, the AC50 under setting [1] was 4.47 µM [rising, partial curve, poor fit].

With `Fc1ccccc1-c1nc2ccccc2[nH]1`, the AC50 under setting [1] is 2.51 µM [falling, full curve]. `O=[N+]([O-])c1cc(Br)c(Nc2ccccc2)c([N+](=O)[O-])c1`: the half-maximal activity concentration (AC50) under setting [2] was 35.5 µM [falling, single point]. For the compound `COc1ccc(N(CC(=O)Nc2ccccc2F)S(=O)(=O)c2ccc(C)c([N+](=O)[O-])c2)cc1`, the AC50 under setting [1] is 11.2 µM [falling, single point].

As to `COc1ccc(C2CC3(CC(C)(C)NC(=S)N3)Oc3cc(O)cc(C)c32)cc1` (configuration not stated), the AC50 reads like this: under setting [1], 20.6 µM [falling, partial curve]; under setting [2], 20.6 µM [rising, partial curve, poor fit]. In the case of `CCc1ccc(OCc2nnc(SCc3ccc(C(=O)O)cc3)o2)cc1`, the half-maximal activity concentration (AC50) under setting [1] is 0.447 µM [falling, partial curve, poor fit]. Consider `COC(=O)Cn1c(=O)c2c(nc(Br)n2Cc2ccccc2Cl)n(C)c1=O`, for which the AC50 under setting [1] is 0.398 µM [falling, full curve, poor fit]. On to `COc1ccccc1N(C)S(=O)(=O)c1ccc(Cl)c(C(=O)NCc2ccco2)c1`, for which the AC50 under setting [1] is 29.1 µM [falling, single point].

As to `COc1ccc(C)cc1NC(=O)c1cccc(-c2ccc(OC(C)=O)cc2)c1`, under setting [1], the AC50 is 7.08 µM [falling, full curve, poor fit]. Regarding `CCCCn1c(O)c(N=Nc2ccccn2)c2ccccc21`, the AC50 under setting [1] is 5.8 µM [rising, full curve]. `Cc1ccc(C2(C)NC(=O)N(CC(=O)NC(C)c3ccccc3)C2=O)cc1` (configuration not stated): under setting [1], the AC50 was 6.31 µM [falling, single point]. On the same count and under the same terms, then `COc1cccc(CN2C(=O)CCC2(C)C(=O)NC2CCCC2)c1` (configuration not stated), with 2.59 µM [rising, full curve]; and `C=CCNC(=O)/C(C#N)=C/c1c(N(Cc2ccccc2)Cc2ccccc2)nc2ccccn2c1=O`, with 29.1 µM [falling, single point]. Turning to `CCOc1cc(N2CCOCC2)c(OCC)cc1NC(=O)COC(=O)CCOc1cc(C)ccc1C`, the AC50 under setting [1] is 29.1 µM [falling, single point].

As to `CCCC(C)C(=O)N(Cc1ccccc1)c1ccccn1` (configuration not stated), the AC50 under setting [1] is 10.3 µM [rising, partial curve, poor fit]. Same read-out and setting: then `C=CCOC(=O)C(C#N)c1nc2ccccc2nc1N1CCCC1` (configuration not stated), with 6.51 µM [rising, single point]. With `CCCCC(O)(CCCC)C(=O)NN(C(=O)CCl)c1ccccc1`, the AC50 under setting [1] was 6.51 µM [falling, partial curve].

On to `Cc1cc(O)c(-c2cc(C(=O)Nc3ccc(S(=O)(=O)N4CCOCC4)cc3)[nH]n2)cc1C`, for which the AC50 under setting [1] was 16.4 µM [falling, single point]. Regarding `COc1ccccc1N1CCN(C(CNS(C)(=O)=O)c2cccnc2)CC1` (configuration not stated), the AC50 under setting [1] was 7.08 µM [falling, partial curve]. Take `O=C1CN(c2ccccc2F)C(=O)CN1c1ccccc1F`: the AC50 under setting [1] was 6.51 µM [rising, single point]. For `CCN(CCCNC(=O)Cn1ncc2c(=O)oc3ccccc3c21)c1cccc(C)c1`, the AC50 under setting [1] is 20 µM [rising, single point]. With `O=C(/C=C/c1ccc([N+](=O)[O-])cc1)N1CCN(S(=O)(=O)c2ccccc2)CC1`, the AC50 under setting [1] was 2.59 µM [rising, partial curve]. The same measure, in the same setting: then `Cc1c(C(=O)N/N=C/c2ccoc2)cccc1[N+](=O)[O-]`, with 3.55 µM [falling, single point]. Same read-out and setting: to `Cc1ccc(-c2nc(C(=O)NCC3CCCO3)cc3c2[nH]c2ccccc23)cc1` (configuration not stated) belongs 3.98 µM [falling, full curve]; to `O=C(CCS(=O)(=O)c1ccc(Cl)cc1)N1CCN(c2ccccc2F)CC1`, 4.47 µM [falling, full curve, poor fit]. Still for that read-out and setting: then `O=C(Cn1c(=O)n(Cc2ccco2)c(=O)c2ccccc21)Nc1cccc(Cl)c1`, with 13 µM [falling, partial curve]; and `CCN(CC(=O)Nc1c(F)cccc1F)C(=O)/C=C/c1ccc(C)cc1`, with 5.8 µM [falling, partial curve]. With `CCN1CCc2nc(NC(=O)Cc3ccc4c(c3)OCCO4)sc2C1`, under setting [1], the AC50 was 17.8 µM [rising, single point]. For the compound `CCOC(=O)c1sc(N)c(C(N)=O)c1C`, the AC50 under setting [1] is 22.4 µM [falling, partial curve, poor fit].

For `CCCn1c(CCc2ccccc2)nnc1SCC(=O)N1CCCC1`, under setting [1], the AC50 is 29.1 µM [rising, single point]. Same read-out and setting: then `Cc1ccc(NC(=O)Cc2ccsc2)cc1Cl`, with 10 µM [rising, partial curve]; and `Cc1c(NC(=O)c2ccccc2NC(=O)COc2ccccc2)cccc1C(=O)O`, with 14.1 µM [falling, single point]. As to `S=C(NCc1ccccc1)NCc1ccc2c(c1)OCO2`, the AC50 under setting [1] was 6.51 µM [rising, single point]. Regarding `CCN(C(=O)c1cc2ccccc2oc1=O)c1cccc(C)c1`, the AC50 under setting [1] is 29.1 µM [falling, single point]. In the case of `COc1ccc(CN(C)S(=O)(=O)c2c(C)noc2C)cc1OC`, under setting [1], the AC50 is 29.1 µM [rising, single point]. Regarding `NS(=O)(=O)c1ccc(CCNC(=O)CN2C(=O)c3ccccc3S2(=O)=O)cc1`, the AC50 under setting [1] was 11.6 µM [rising, partial curve, poor fit]. In the case of `CCCCn1c(N)c(N(CCC(C)C)C(=O)C2CC(=O)N(Cc3ccc(C)cc3)C2)c(=O)[nH]c1=O` (configuration not stated), the AC50 under setting [1] is 20.6 µM [falling, partial curve, poor fit].

On to `COc1ccccc1N1CCN(CCc2n[nH]c(=S)n2-c2ccccc2)CC1`, for which, under setting [1], the AC50 was 0.731 µM [falling, full curve, poor fit]. Regarding `O=C(CCC(=O)N1CCc2ccccc2C1)NCCc1ccc(Cl)cc1`, under setting [1], the AC50 was 11.2 µM [rising, partial curve, poor fit]. Consider `CCCc1cc(NCC2CCCO2)n2c(nc3ccccc32)c1C#N` (configuration not stated), for which the AC50 under setting [2] was 25.9 µM [rising, partial curve, poor fit]. On to `O=C(Cc1ccc(Br)cc1)Nc1nc2ccccc2[nH]1`, for which, under setting [1], the AC50 is 25.1 µM [falling, single point].

Turning to `CCc1ccc(OC)c(S(=O)(=O)Nc2ccc(Cc3ccncc3)cc2)c1`, under setting [1], the AC50 is 35.5 µM [falling, single point]. Consider `CCN(CC1COc2ccccc2O1)C(=S)NC1CC2CCC1C2` (configuration not stated), for which the AC50 under setting [1] was 3.55 µM [rising, partial curve, poor fit]. Consider `CCCC/C(C)=N/NC(=O)c1cn(-c2ccccc2)nc1-c1ccccc1`, for which the AC50 under setting [1] is 25.9 µM [falling, single point]. `CCc1sc(C(=O)Nc2ncccc2C)cc1C`: the AC50 under setting [1] was 4.47 µM [falling, full curve]. As to `CCN(CC)S(=O)(=O)c1ccc(/C=C/C(=O)Nc2cccc(F)c2)cc1`, under setting [1], the AC50 was 7.31 µM [falling, partial curve, poor fit].

Consider `NC(=O)c1ccccc1O`, for which the AC50 under setting [1] was 18.4 µM [rising, partial curve, poor fit]. On to `CC1CCCC(NC(=O)CSc2ncccc2C(=O)O)C1C` (configuration not stated), for which the AC50 under setting [1] was 6.51 µM [falling, single point]. Take `O=c1[nH]c(C(F)(F)F)nc2ccc3ccccc3c12`: under setting [1], the AC50 is 11.2 µM [falling, partial curve, poor fit]. Consider `CCOc1ccc(CCNC(=O)CSc2nn(-c3ccc(C)c(Cl)c3)c(=S)s2)cc1OCC`, for which the AC50 under setting [1] is 29.1 µM [rising, single point]. `O=C(NCC1(c2ccccc2)CCCC1)c1ccc(Br)cc1`: under setting [1], the AC50 is 29.1 µM [rising, single point].

Regarding `Nc1nnc(SCC(=O)Nc2ccc(N3CCOCC3)c(Cl)c2)s1`, the AC50 under setting [1] was 35.5 µM [falling, single point]. As for `Cc1ccc(C(=O)/C=C/NCc2ccc(F)cc2)cc1`, the AC50 under setting [1] is 7.31 µM [rising, partial curve, poor fit]. Consider `COc1cccc(NC2=NC3(CCCCC3)N=C(N)N2)c1`, for which, under setting [1], the AC50 is 20.6 µM [rising, single point]. Same read-out and setting: to `O=C(CSC(=S)N1CCCCC1)c1ccccc1` belongs 35.5 µM [falling, single point]; to `CN1C(=O)c2ccccc2Sc2ccc(NC(=O)NC3CC3)cc21`, 8.91 µM [rising, partial curve, poor fit]; to `OC(CN1CCN(c2ccccc2)CC1)c1c[nH]c2ccccc12` (configuration not stated), 8.91 µM [falling, partial curve, poor fit].

For the compound `COc1ccc2nc(NCc3cccnc3)sc2c1`, the AC50 under setting [1] was 22.4 µM [falling, single point]. Turning to `COc1ccccc1C(=O)Nc1ccccn1`, the AC50 under setting [1] is 29.1 µM [falling, single point].

For the compound `O=C(O)/C=C/C(=O)Nc1ccc(OC(F)F)cc1`, the AC50 under setting [1] is 3.98 µM [rising, single point]. Consider `Cc1nc2cc(NC(=O)c3cccc(S(C)(=O)=O)c3)ccc2o1`, for which the AC50 under setting [1] was 17.8 µM [falling, partial curve]. The same measure, in the same setting: then `N#Cc1nccnc1S(=O)(=O)c1cccs1`, with 5.01 µM [falling, partial curve]; and `CNC(=O)c1ccc(Nc2nnc(-c3ccc(C(N)=O)cc3)c3ccccc23)cc1`, with 3.98 µM [rising, full curve, poor fit]. Take `Cc1nnc(-c2ccc(Oc3ccc(Cl)cc3)c([N+](=O)[O-])c2)o1`: under setting [1], the AC50 was 29.1 µM [falling, partial curve, poor fit].

These data come from PubChem BioAssay AID493014 (National Center for Advancing Translational Sciences (NCATS), 2011).
